In patent publication US20140187595A1 (INSERM (Institut National de la Sante et de la Recherche …, priority 2010, published 2014):
For at least one compound, name, drawing or mass did not settle the structure.

Key:
[1] = tested on: INSR splicing (±exon 11) in DM1 MPCs; assay: INSR splicing (±exon 11, INSR-A/INSR-B ratio) by quantitative PCR in DM1 MPCs; type: cell-based, human; details: 100 μM
[2] = tested on: peripheral blood lymphocytes (PBLs); assay: INSR-A/INSR-B ratio by quantitative PCR in peripheral blood lymphocytes; type: cell-based, human; details: 100 μM troglitazone, two days, wild type and DM1 patients' PBLs
myotonia = details: one case-report; cited from earlier work

Cc1c(C)c2c(c(C)c1O)CCC(C)(COc1ccc(CC3SC(=O)NC3=O)cc1)O2 (stereo not drawn) [troglitazone]
restoring INSR splicing [1]: normal levels were reached
INSR-A/INSR-B ratio [2]: marked reduction
myotonia in a patient with DM1 (myotonia): myotonia improved
